Measured values taken from PubChem BioAssay AID248 (DTP/NCI, 2004).
The list shows only some results of the screen, not a fair sample: it gathers tests that were run many times, whatever their T/C, doses with no T/C, and many T/C values between a quarter and a half above the control. Further doses and runs are listed elsewhere. T/C: endpoint of the treated group in % of that of the vehicle group. Some doses have a count of surviving animals in place of a T/C: the source files T/C as zero there, which appears to mark a toxic dose or a test without result, not a measured value. Some doses without a T/C left all or most animals alive at the check, yet need not have been tolerated: survival well below the control is almost never listed, so the zero probably covers shortened survival too. Survivors were counted at the toxicity check, usually on the fifth day, unless a day is given; later deaths do not show. Schedules are NCI's codes, taken here to give the interval after Q, in days (D) or hours (H), and the number of doses after X. Some doses were run more than once; the results are listed from low to high. Where survival is the endpoint, the PubChem record calls one and a half times the control and up active, and a quarter to a half above the control has no call in these data; cut-offs in other NCI protocols can differ. Some T/C values are followed by the survivors on the day toxicity was checked, most often the fifth; without a count, all were alive then.

Tested on: L1210 leukemia ip in BDF1 mice, survival T/C
Assay: NCI In Vivo Anticancer Drug Screen. Data for tumor model L1210 Leukemia (intraperitoneal) in B6D2F1 (BDF1) mice
Details: T/C endpoint: mean survival time, higher T/C = longer survival
[1] = dose: 400.0 mg/kg/injection, schedule: Q01DX009 (ip), vehicle: Klucel (hydroxypropylcellulose) (HPC)
[2] = dose: 50.0 mg/kg/injection, schedule: Q04DX003 (ip), vehicle: saline
[3] = dose: 400.0 mg/kg/injection, schedule: Q04DX003 (ip), vehicle: saline
[4] = dose: 100.0 mg/kg/injection, schedule: Q01DX009 (ip), vehicle: saline
[5] = dose: 200.0 mg/kg/injection, schedule: Q01DX001 (ip), vehicle: saline
[6] = dose: 400.0 mg/kg/injection, schedule: Q01DX001 (ip), vehicle: saline
[7] = dose: 400.0 mg/kg/injection, schedule: Q04DX003 (ip), vehicle: saline with Tween-80

Q: How did the survivor count (dose: 300.0 mg/kg/injection, schedule: Q01DX001 (ip), vehicle: other) turn out when `Cc1ccc(S(=O)(=O)N/N=C2\C(=O)C3CCC2C3Cl)cc1` (configuration not stated) was run?
A: Its survivor count is 0 of 6.

Q: Which results are given for `[Cl][Hg][Cl].c1ccc(CSc2ccccc2)cc1`?
A: survivor count (dose: 10.0 mg/kg/injection, schedule: Q01DX001 (ip), vehicle: carboxymethylcellulose (CMC)): 0 of 4; survivor count (dose: 20.0 mg/kg/injection, schedule: Q01DX001 (ip), vehicle: carboxymethylcellulose (CMC)): 0 of 4; survivor count (dose: 40.0 mg/kg/injection, schedule: Q01DX001 (ip), vehicle: carboxymethylcellulose (CMC)): 0 of 4; survivor count (dose: 80.0 mg/kg/injection, schedule: Q01DX001 (ip), vehicle: carboxymethylcellulose (CMC)): 0 of 4

Q: `Cc1cc(C)c(-n2c(C)nc3ccccc3c2=O)c([N+](=O)[O-])c1` was tested. Which survivor count (dose: 200.0 mg/kg/injection, schedule: Q01DX009 (ip), vehicle: Klucel (hydroxypropylcellulose) (HPC)) did it give?
A: The survivor count was 0 of 6.

Q: And the survivor count [1]?
A: The survivor count was 0 of 6.

Q: How did the survivor count (dose: 400.0 mg/kg/injection, schedule: Q01DX001 (ip), vehicle: saline with Tween-80) turn out when `O=C1N(c2cc([N+](=O)[O-])ccc2F)C(=O)C(F)(F)C1(F)F` was run?
A: The survivor count was 3 of 6.

Q: `COCNC(=S)N/N=C/c1ccccn1` was tested. Which T/C (dose: 25.0 mg/kg/injection, schedule: Q01DX009 (ip), vehicle: saline with Tween-80) did it give?
A: The T/C was 127 % of control.

Q: For `Cc1ccc(C2CCCN2C)cc1` (configuration not stated), which survivor count (dose: 200.0 mg/kg/injection, schedule: Q01DX001 (ip), vehicle: acetone) is on record?
A: The survivor count was 0 of 6.

Q: What about the survivor count (dose: 400.0 mg/kg/injection, schedule: Q01DX001 (ip), vehicle: acetone) of the same compound?
A: Its survivor count is 0 of 6.

Q: What does the source list for `CCCN(/C=C/C=C/C=[N+](CCC)CCC)CCC`?
A: survivor count (dose: 0.19 mg/kg/injection, schedule: Q04DX003 (ip), vehicle: saline): 1 of 6; survivor count (dose: 0.39 mg/kg/injection, schedule: Q04DX003 (ip), vehicle: saline): 0 of 6; survivor count (dose: 0.78 mg/kg/injection, schedule: Q04DX003 (ip), vehicle: saline): 0 of 6; survivor count (dose: 1.56 mg/kg/injection, schedule: Q04DX003 (ip), vehicle: saline): 0 of 6; survivor count (dose: 3.13 mg/kg/injection, schedule: Q04DX003 (ip), vehicle: saline): 0 of 6; survivor count (dose: 6.25 mg/kg/injection, schedule: Q04DX003 (ip), vehicle: saline): 0 of 6; survivor count (dose: 12.5 mg/kg/injection, schedule: Q04DX003 (ip), vehicle: saline): 2 of 6; survivor count (dose: 25.0 mg/kg/injection, schedule: Q04DX003 (ip), vehicle: saline): 1 of 6; survivor count [2]: 0 of 6; survivor count (dose: 100.0 mg/kg/injection, schedule: Q04DX003 (ip), vehicle: saline): 0 of 6; survivor count (dose: 200.0 mg/kg/injection, schedule: Q04DX003 (ip), vehicle: saline): 0 of 6; survivor count [3]: 0 of 6

Q: What does the source list for `CSc1sc2ccccc2[n+]1C`?
A: T/C [4]: 127 and 128 % of control; survivor count (dose: 200.0 mg/kg/injection, schedule: Q01DX009 (ip), vehicle: saline): 0 of 6 and 3 of 6; survivor count [3]: 1 of 6

Q: `O=C1CCNc2cc(Cl)ccc21` was tested. Which survivor count [1] did it give?
A: Its survivor count is 6 of 6.

Q: Which survivor count (dose: 80.0 mg/kg/injection, schedule: Q01DX001 (ip), vehicle: saline) does the source give for `Nc1cnnc(N)c1Cl` here?
A: Its survivor count is 0 of 4.

Q: And the survivor count (dose: 100.0 mg/kg/injection, schedule: Q01DX001 (ip), vehicle: saline)?
A: The survivor count was 0 of 6.

Q: And the survivor count [5]?
A: The survivor count was 0 of 6.

Q: What about the survivor count [6] of the same compound?
A: Its survivor count is 0 of 6.

Q: For `O=[N+]([O-])c1ccc(C=Nc2ccccc2)s1`, which survivor count (dose: 400.0 mg/kg/injection, schedule: Q04DX003 (ip), vehicle: Klucel (hydroxypropylcellulose) (HPC)) is on record?
A: Its survivor count is 1 of 6.

Q: With `CCCCCCN` as the compound, how does the survivor count [4] read?
A: Its survivor count is 1 of 3.

Q: What about the T/C (dose: 100.0 mg/kg/injection, schedule: Q04DX002 (ip), vehicle: saline, evaluated on day 20) of the same compound?
A: Its T/C is 97 % of control.

Q: And the T/C (dose: 100.0 mg/kg/injection, schedule: Q04DX002 (ip), vehicle: saline, evaluated on day 30)?
A: Its T/C is 103, 105, 111 % of control.

Q: And the survivor count (dose: 200.0 mg/kg/injection, schedule: Q04DX002 (ip), vehicle: saline)?
A: Its survivor count is 0 of 3 and 1 of 6.

Q: And the survivor count (dose: 400.0 mg/kg/injection, schedule: Q04DX002 (ip), vehicle: saline)?
A: The survivor count was 0 of 3 and 0 of 6.

Q: How did the survivor count (dose: 400.0 mg/kg/injection, schedule: Q04DX002 (ip), vehicle: Klucel (hydroxypropylcellulose) (HPC)) turn out when `CCOC(=O)N1CCC2(CC1)CC(=O)N(N1CCCCCC1)C2=O` was run?
A: The survivor count was 1 of 3.

Q: For `COc1cc(OC)c(C(=O)c2ccccc2N)c(OC)c1`, which survivor count [7] is on record?
A: Its survivor count is 6 of 6.

Q: For `CC(=O)OC1CCC(C(C)(C)C)CC1` (configuration not stated), which survivor count (dose: 400.0 mg/kg/injection, schedule: Q01DX009 (ip), vehicle: saline with Tween-80) is on record?
A: The survivor count was 0 of 6.

Q: What does the source list for `C[S+]1CCC(N)C(=O)C1` (configuration not stated)?
A: T/C (dose: 25.0 mg/kg/injection, schedule: Q04DX002 (ip), vehicle: saline): 126 % of control; T/C (dose: 100.0 mg/kg/injection, schedule: Q04DX002 (ip), vehicle: saline): 129 % of control

Q: How did the survivor count [7] turn out when `CCCCCCCCCCCCN1CCCN(CCCCCCCCCCCC)CC1` was run?
A: Its survivor count is 3 of 6.

Q: Which survivor count [2] does the source give for `CCCCCCCCCCNC(=O)C[n+]1cccc(C(=O)NC)c1` here?
A: The survivor count was 5 of 6.

Q: For `Cc1ccc(Sc2cccc3c2C(=O)c2c(Sc4ccc(C)cc4)cccc2C3(Br)c2ccccc2)cc1`, which survivor count (dose: 200.0 mg/kg/injection, schedule: Q01DX009 (ip), vehicle: saline with Tween-80) is on record?
A: Its survivor count is 5 of 6.

Q: For `Cc1cc(C)c(N2C(=O)C=CC2=O)c(C)c1`, which survivor count (dose: 3.13 mg/kg/injection, schedule: Q01DX009 (ip), vehicle: saline with Tween-80) is on record?
A: The survivor count was 6 of 6.

Q: And the survivor count (dose: 100.0 mg/kg/injection, schedule: Q04DX002 (ip), vehicle: saline with Tween-80)?
A: The survivor count was 0 of 3.

Q: What about the survivor count (dose: 200.0 mg/kg/injection, schedule: Q04DX002 (ip), vehicle: saline with Tween-80) of the same compound?
A: Its survivor count is 0 of 3.

Q: And the survivor count (dose: 400.0 mg/kg/injection, schedule: Q04DX002 (ip), vehicle: saline with Tween-80)?
A: Its survivor count is 0 of 3.

Q: What does the source list for `CCC1C2Cc3ccc(O)cc3C1(CC)CCN2C` (configuration not stated)?
A: survivor count [5]: 0 of 4; survivor count [6]: 0 of 4

Q: What does the source list for `O=C(CN1CC1)NCCCCCCCCNC(=O)CN1CC1`?
A: T/C (dose: 16.0 mg/kg/injection, schedule: Q01DX009 (ip), vehicle: carboxymethylcellulose (CMC)): 149 % of control [5 of 6 alive]; T/C (dose: 22.0 mg/kg/injection, schedule: Q01DX001 (ip), vehicle: carboxymethylcellulose (CMC)): 138 % of control; T/C (dose: 22.0 mg/kg/injection, schedule: Q01DX009 (ip), vehicle: carboxymethylcellulose (CMC)): 135 % of control; T/C (dose: 25.0 mg/kg/injection, schedule: Q04DX003 (ip), vehicle: Klucel (hydroxypropylcellulose) (HPC)): 144 % of control; T/C (dose: 33.0 mg/kg/injection, schedule: Q01DX001 (ip), vehicle: carboxymethylcellulose (CMC)): 146 % of control; T/C (dose: 75.0 mg/kg/injection, schedule: Q01DX001 (ip), vehicle: carboxymethylcellulose (CMC)): 135 % of control; survivor count (dose: 75.0 mg/kg/injection, schedule: Q01DX009 (ip), vehicle: carboxymethylcellulose (CMC)): 6 of 6; survivor count (dose: 100.0 mg/kg/injection, schedule: Q01DX001 (ip), vehicle: carboxymethylcellulose (CMC)): 2 of 4; survivor count (dose: 200.0 mg/kg/injection, schedule: Q01DX001 (ip), vehicle: carboxymethylcellulose (CMC)): 0 of 4; survivor count (dose: 400.0 mg/kg/injection, schedule: Q01DX001 (ip), vehicle: carboxymethylcellulose (CMC)): 0 of 4

Q: How did the survivor count [6] turn out when `ClCCC(c1ccccc1)N1CCCCC1` (configuration not stated) was run?
A: Its survivor count is 0 of 4.

Q: `CCCN(CCC)CCCCO` was tested. Which survivor count [7] did it give?
A: The survivor count was 1 of 6.

Q: What does the source list for `N#Cc1cnc2nc(N)nc(N)c2c1`?
A: survivor count [4]: 6 of 6; survivor count (dose: 400.0 mg/kg/injection, schedule: Q01DX009 (ip), vehicle: saline): 2 of 6 and 4 of 6; survivor count [3]: 2 of 6

Q: What does the source list for `CCCCNC1=C(NC(=O)C(Cl)Cl)C(=O)c2ccccc2C1=O`?
A: survivor count (dose: 20.0 mg/kg/injection, schedule: Q04DX003 (ip), vehicle: saline with Tween-80): 3 of 6; survivor count (dose: 100.0 mg/kg/injection, schedule: Q04DX003 (ip), vehicle: saline with Tween-80): 0 of 6; survivor count (dose: 200.0 mg/kg/injection, schedule: Q04DX003 (ip), vehicle: saline with Tween-80): 0 of 6; survivor count [7]: 0 of 6

Q: `CN1CC2CCCCC1C2OC(=O)C(c1ccccc1)c1ccccc1` (configuration not stated) was tested. Which survivor count (dose: 300.0 mg/kg/injection, schedule: Q01DX001 (ip), vehicle: saline) did it give?
A: Its survivor count is 0 of 6.

Q: How did the survivor count [3] turn out when `O=c1nccc[nH]1` was run?
A: The survivor count was 4 of 6.
